Patent US20150209794A1, “MODIFIED MICRONIZATION DEVICE AND METHOD THEREOF” (OEKOMINERAL AG, priority 2014, published 2015)
At least one structure is not confirmed: it was looked up by name or label, or the drawing left a doubt.

Assay: Particles size analyses of the Examples (average particle size)
Type: physicochemical

## COc1cc(/C=C/c2ccc(O)cc2)cc(OC)c1 [Pterostilbene]
Pterostilbene after seven repeated processes of micronization, device of the invention, 20° C.
  Average particle size: around 0.4 μm
Pterostilbene before micronization
  size of crystalline particles: 50 pm
